Results are given in words; binding and its absence hold for the method and conditions named. Some entries that bind do so weakly or less than the wild type. Sequences can lack the tags named with a protein.
Molecular target: T1, IL-11/IL-11Rα fusion (interleukin and receptor connected with a (GGGGS)3 linker) (UniProt Q14626)
T1 sequence: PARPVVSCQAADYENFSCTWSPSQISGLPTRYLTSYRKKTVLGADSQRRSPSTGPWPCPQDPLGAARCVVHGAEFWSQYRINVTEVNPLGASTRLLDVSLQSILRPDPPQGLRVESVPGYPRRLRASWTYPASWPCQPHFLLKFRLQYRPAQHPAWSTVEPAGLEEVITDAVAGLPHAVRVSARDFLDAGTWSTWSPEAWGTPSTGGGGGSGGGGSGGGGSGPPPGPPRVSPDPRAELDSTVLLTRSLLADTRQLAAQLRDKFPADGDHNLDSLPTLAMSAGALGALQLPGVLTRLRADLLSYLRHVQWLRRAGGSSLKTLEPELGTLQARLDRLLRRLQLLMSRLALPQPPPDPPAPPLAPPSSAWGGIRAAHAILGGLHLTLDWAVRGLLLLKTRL
Experiment: HDX-MS

The chains behind the UniProt entries cited, without tags or fusion partners. Residues count along the entry.
UniProt P40189, residues 24-618: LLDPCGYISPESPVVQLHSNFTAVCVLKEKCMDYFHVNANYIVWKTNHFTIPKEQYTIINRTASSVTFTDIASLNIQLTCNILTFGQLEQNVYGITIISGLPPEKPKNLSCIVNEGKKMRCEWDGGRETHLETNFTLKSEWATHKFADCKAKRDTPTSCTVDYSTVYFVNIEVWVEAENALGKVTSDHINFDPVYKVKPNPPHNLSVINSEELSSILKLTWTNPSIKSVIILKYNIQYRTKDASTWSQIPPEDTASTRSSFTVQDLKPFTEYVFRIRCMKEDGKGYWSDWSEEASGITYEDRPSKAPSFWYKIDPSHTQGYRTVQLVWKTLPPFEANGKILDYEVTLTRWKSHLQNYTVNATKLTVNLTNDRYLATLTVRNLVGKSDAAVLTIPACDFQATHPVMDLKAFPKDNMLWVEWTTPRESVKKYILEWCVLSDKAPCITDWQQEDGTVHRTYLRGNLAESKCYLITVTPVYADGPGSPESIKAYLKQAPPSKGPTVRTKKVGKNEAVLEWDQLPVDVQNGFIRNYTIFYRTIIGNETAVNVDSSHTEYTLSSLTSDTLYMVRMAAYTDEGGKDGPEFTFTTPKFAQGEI

human glycoprotein 130 (amino acids 24-618) (from UniProt P40189 24-618) (receptor)
binding: binds
